Laboratory results published in article PMC7889885.
These are yes or no findings as the source states them, for the method shown. For part of these data: In cells and extracts the contact can be indirect. Some results given as binding are weak or reduced against the parent protein; the word gives no strength. Tags and fused reporters may be left off the sequences shown.

Legend:
[1] = molecular target: T1, human NKCC1 (hNKCC1a, SLC12A2), twin-Strep tagged, as prepared for cryo-EM (human), P55011; assay: cryo-EM structure; single-particle cryo-EM of the purified transporter in 20 mM HEPES pH 7.4, 150 mM NaCl, 0.1% digitonin, ~10 mg/ml; C2 symmetry imposed; both purified; conditions: remark: other sources report otherwise
T1 chain: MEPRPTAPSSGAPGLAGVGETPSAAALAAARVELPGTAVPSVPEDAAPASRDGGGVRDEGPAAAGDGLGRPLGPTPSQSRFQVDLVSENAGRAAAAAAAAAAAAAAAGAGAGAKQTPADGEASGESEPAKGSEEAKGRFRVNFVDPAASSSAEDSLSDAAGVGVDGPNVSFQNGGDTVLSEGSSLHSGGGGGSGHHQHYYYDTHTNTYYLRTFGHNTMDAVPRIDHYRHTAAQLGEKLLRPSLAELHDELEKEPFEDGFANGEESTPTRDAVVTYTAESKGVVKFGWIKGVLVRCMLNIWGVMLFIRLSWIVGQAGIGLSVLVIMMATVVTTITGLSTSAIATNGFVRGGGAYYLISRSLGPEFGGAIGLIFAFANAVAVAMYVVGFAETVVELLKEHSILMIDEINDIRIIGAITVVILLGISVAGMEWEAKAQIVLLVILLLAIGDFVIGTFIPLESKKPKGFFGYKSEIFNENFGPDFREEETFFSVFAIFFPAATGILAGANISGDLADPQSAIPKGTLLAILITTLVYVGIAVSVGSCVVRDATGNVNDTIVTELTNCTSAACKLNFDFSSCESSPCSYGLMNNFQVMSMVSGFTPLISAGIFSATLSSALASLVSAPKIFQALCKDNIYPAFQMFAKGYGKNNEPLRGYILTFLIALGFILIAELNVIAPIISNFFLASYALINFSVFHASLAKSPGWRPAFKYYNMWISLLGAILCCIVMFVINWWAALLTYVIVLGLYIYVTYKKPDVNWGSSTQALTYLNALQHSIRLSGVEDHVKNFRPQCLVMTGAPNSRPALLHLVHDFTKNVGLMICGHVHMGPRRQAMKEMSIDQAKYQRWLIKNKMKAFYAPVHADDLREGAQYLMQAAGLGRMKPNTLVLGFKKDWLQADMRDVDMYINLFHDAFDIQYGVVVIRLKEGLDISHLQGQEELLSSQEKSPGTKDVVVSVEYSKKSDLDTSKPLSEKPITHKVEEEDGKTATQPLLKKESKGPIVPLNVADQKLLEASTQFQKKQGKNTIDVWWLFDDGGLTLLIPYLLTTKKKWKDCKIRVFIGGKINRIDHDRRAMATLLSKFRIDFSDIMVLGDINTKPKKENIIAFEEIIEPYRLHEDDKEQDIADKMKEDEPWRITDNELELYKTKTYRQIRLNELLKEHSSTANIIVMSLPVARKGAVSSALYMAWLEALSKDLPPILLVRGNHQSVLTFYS

[2] = molecular target: full-length hNKCC1 tagged with flag and YFP, F728C in the C723S-C724V double mutation (human) (UniProt P55011); assay: cross-linking; oxidative cross-linking of single-cysteine mutants in HEK293 cells with 1.5 mM cupric phenanthroline in regular medium for 10-40 min before lysis; blot with T4 antibody
[3] = molecular target: full-length hNKCC1 tagged with flag and YFP, W733C in the C723S-C724V double mutation (human) (UniProt P55011); assay: as above

B1: human NKCC1 (hNKCC1a, SLC12A2), twin-Strep tagged, as prepared for cryo-EM, P55011 1-1212 (natural protein)
chain: MEPRPTAPSSGAPGLAGVGETPSAAALAAARVELPGTAVPSVPEDAAPASRDGGGVRDEGPAAAGDGLGRPLGPTPSQSRFQVDLVSENAGRAAAAAAAAAAAAAAAGAGAGAKQTPADGEASGESEPAKGSEEAKGRFRVNFVDPAASSSAEDSLSDAAGVGVDGPNVSFQNGGDTVLSEGSSLHSGGGGGSGHHQHYYYDTHTNTYYLRTFGHNTMDAVPRIDHYRHTAAQLGEKLLRPSLAELHDELEKEPFEDGFANGEESTPTRDAVVTYTAESKGVVKFGWIKGVLVRCMLNIWGVMLFIRLSWIVGQAGIGLSVLVIMMATVVTTITGLSTSAIATNGFVRGGGAYYLISRSLGPEFGGAIGLIFAFANAVAVAMYVVGFAETVVELLKEHSILMIDEINDIRIIGAITVVILLGISVAGMEWEAKAQIVLLVILLLAIGDFVIGTFIPLESKKPKGFFGYKSEIFNENFGPDFREEETFFSVFAIFFPAATGILAGANISGDLADPQSAIPKGTLLAILITTLVYVGIAVSVGSCVVRDATGNVNDTIVTELTNCTSAACKLNFDFSSCESSPCSYGLMNNFQVMSMVSGFTPLISAGIFSATLSSALASLVSAPKIFQALCKDNIYPAFQMFAKGYGKNNEPLRGYILTFLIALGFILIAELNVIAPIISNFFLASYALINFSVFHASLAKSPGWRPAFKYYNMWISLLGAILCCIVMFVINWWAALLTYVIVLGLYIYVTYKKPDVNWGSSTQALTYLNALQHSIRLSGVEDHVKNFRPQCLVMTGAPNSRPALLHLVHDFTKNVGLMICGHVHMGPRRQAMKEMSIDQAKYQRWLIKNKMKAFYAPVHADDLREGAQYLMQAAGLGRMKPNTLVLGFKKDWLQADMRDVDMYINLFHDAFDIQYGVVVIRLKEGLDISHLQGQEELLSSQEKSPGTKDVVVSVEYSKKSDLDTSKPLSEKPITHKVEEEDGKTATQPLLKKESKGPIVPLNVADQKLLEASTQFQKKQGKNTIDVWWLFDDGGLTLLIPYLLTTKKKWKDCKIRVFIGGKINRIDHDRRAMATLLSKFRIDFSDIMVLGDINTKPKKENIIAFEEIIEPYRLHEDDKEQDIADKMKEDEPWRITDNELELYKTKTYRQIRLNELLKEHSSTANIIVMSLPVARKGAVSSALYMAWLEALSKDLPPILLVRGNHQSVLTFYS
Which binding [1] does the source give for B1 here?
The binding was “binds”.

B2: full-length hNKCC1 tagged with flag and YFP, F728C in the C723S-C724V double mutation (protein, UniProt P55011 1-1212)
chain: MEPRPTAPSSGAPGLAGVGETPSAAALAAARVELPGTAVPSVPEDAAPASRDGGGVRDEGPAAAGDGLGRPLGPTPSQSRFQVDLVSENAGRAAAAAAAAAAAAAAAGAGAGAKQTPADGEASGESEPAKGSEEAKGRFRVNFVDPAASSSAEDSLSDAAGVGVDGPNVSFQNGGDTVLSEGSSLHSGGGGGSGHHQHYYYDTHTNTYYLRTFGHNTMDAVPRIDHYRHTAAQLGEKLLRPSLAELHDELEKEPFEDGFANGEESTPTRDAVVTYTAESKGVVKFGWIKGVLVRCMLNIWGVMLFIRLSWIVGQAGIGLSVLVIMMATVVTTITGLSTSAIATNGFVRGGGAYYLISRSLGPEFGGAIGLIFAFANAVAVAMYVVGFAETVVELLKEHSILMIDEINDIRIIGAITVVILLGISVAGMEWEAKAQIVLLVILLLAIGDFVIGTFIPLESKKPKGFFGYKSEIFNENFGPDFREEETFFSVFAIFFPAATGILAGANISGDLADPQSAIPKGTLLAILITTLVYVGIAVSVGSCVVRDATGNVNDTIVTELTNCTSAACKLNFDFSSCESSPCSYGLMNNFQVMSMVSGFTPLISAGIFSATLSSALASLVSAPKIFQALCKDNIYPAFQMFAKGYGKNNEPLRGYILTFLIALGFILIAELNVIAPIISNFFLASYALINFSVFHASLAKSPGWRPAFKYYNMWISLLGAILSVIVMCVINWWAALLTYVIVLGLYIYVTYKKPDVNWGSSTQALTYLNALQHSIRLSGVEDHVKNFRPQCLVMTGAPNSRPALLHLVHDFTKNVGLMICGHVHMGPRRQAMKEMSIDQAKYQRWLIKNKMKAFYAPVHADDLREGAQYLMQAAGLGRMKPNTLVLGFKKDWLQADMRDVDMYINLFHDAFDIQYGVVVIRLKEGLDISHLQGQEELLSSQEKSPGTKDVVVSVEYSKKSDLDTSKPLSEKPITHKVEEEDGKTATQPLLKKESKGPIVPLNVADQKLLEASTQFQKKQGKNTIDVWWLFDDGGLTLLIPYLLTTKKKWKDCKIRVFIGGKINRIDHDRRAMATLLSKFRIDFSDIMVLGDINTKPKKENIIAFEEIIEPYRLHEDDKEQDIADKMKEDEPWRITDNELELYKTKTYRQIRLNELLKEHSSTANIIVMSLPVARKGAVSSALYMAWLEALSKDLPPILLVRGNHQSVLTFYS
Which binding [2] does the source give for B2 here?
Its binding is “binds”.

B3: full-length hNKCC1 tagged with flag and YFP, W733C in the C723S-C724V double mutation (protein, UniProt P55011 1-1212)
chain: MEPRPTAPSSGAPGLAGVGETPSAAALAAARVELPGTAVPSVPEDAAPASRDGGGVRDEGPAAAGDGLGRPLGPTPSQSRFQVDLVSENAGRAAAAAAAAAAAAAAAGAGAGAKQTPADGEASGESEPAKGSEEAKGRFRVNFVDPAASSSAEDSLSDAAGVGVDGPNVSFQNGGDTVLSEGSSLHSGGGGGSGHHQHYYYDTHTNTYYLRTFGHNTMDAVPRIDHYRHTAAQLGEKLLRPSLAELHDELEKEPFEDGFANGEESTPTRDAVVTYTAESKGVVKFGWIKGVLVRCMLNIWGVMLFIRLSWIVGQAGIGLSVLVIMMATVVTTITGLSTSAIATNGFVRGGGAYYLISRSLGPEFGGAIGLIFAFANAVAVAMYVVGFAETVVELLKEHSILMIDEINDIRIIGAITVVILLGISVAGMEWEAKAQIVLLVILLLAIGDFVIGTFIPLESKKPKGFFGYKSEIFNENFGPDFREEETFFSVFAIFFPAATGILAGANISGDLADPQSAIPKGTLLAILITTLVYVGIAVSVGSCVVRDATGNVNDTIVTELTNCTSAACKLNFDFSSCESSPCSYGLMNNFQVMSMVSGFTPLISAGIFSATLSSALASLVSAPKIFQALCKDNIYPAFQMFAKGYGKNNEPLRGYILTFLIALGFILIAELNVIAPIISNFFLASYALINFSVFHASLAKSPGWRPAFKYYNMWISLLGAILSVIVMFVINWCAALLTYVIVLGLYIYVTYKKPDVNWGSSTQALTYLNALQHSIRLSGVEDHVKNFRPQCLVMTGAPNSRPALLHLVHDFTKNVGLMICGHVHMGPRRQAMKEMSIDQAKYQRWLIKNKMKAFYAPVHADDLREGAQYLMQAAGLGRMKPNTLVLGFKKDWLQADMRDVDMYINLFHDAFDIQYGVVVIRLKEGLDISHLQGQEELLSSQEKSPGTKDVVVSVEYSKKSDLDTSKPLSEKPITHKVEEEDGKTATQPLLKKESKGPIVPLNVADQKLLEASTQFQKKQGKNTIDVWWLFDDGGLTLLIPYLLTTKKKWKDCKIRVFIGGKINRIDHDRRAMATLLSKFRIDFSDIMVLGDINTKPKKENIIAFEEIIEPYRLHEDDKEQDIADKMKEDEPWRITDNELELYKTKTYRQIRLNELLKEHSSTANIIVMSLPVARKGAVSSALYMAWLEALSKDLPPILLVRGNHQSVLTFYS
Which binding [3] does the source give for B3 here?
The binding was “binds”.
